PubChem BioAssay AID1224826 | NIAID, 2016
In all, the deposit lists about 17,000 reagents; this is an unselected part. About 1,110 of them (6.6%) were called active. 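Active means lowered or raised reporter signal; replicate intensities are raw and not normalised per plate.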 Not all columns of the deposit are shown.

- Assay: 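Genes that change LPS-induced Tnf promoter activity in mouse macrophages when knocked down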 (primary screen)
- Cells: RAW264.7 G9 macrophages from mouse bearing reporters for p65 (GFP) and the Tnf promoter (mCherry)
- Reagents: siRNA pool against mouse genes, 100 nM
- Timing: 16 h of LPS stimulation, after 2 days of siRNA transfection
- Conditions: bacterial lipopolysaccharide (Salmonella minnesota R595), 10 ng/ml
- Detection: 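Imaged Tnf reporter mCherry in nuclei, minus background, normalised per plate to the median and expressed as robust z-scores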
- Reading the numbers: Tnf reporter robust z-score: higher = stronger Tnf promoter reporter signal after LPS
- Active means: 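a well counts as active at a score of -1.3 or below (Tlr4 knock-down control median) or above 3 (raised signal); controls and wells holding fewer than 50 cells are excluded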
- Calls: active = Tnf reporter clearly lowered or raised; inactive = no clear change in Tnf reporter

Knock-down of Amh gave: Tnf reporter robust z-score 0.86; fewer than 50 cells in well enough cells in well; inactive.
Against Ell2 the deposit lists Tnf reporter robust z-score -1.63; fewer than 50 cells in well enough cells in well; active.
For Xxylt1, the entry reads Tnf reporter robust z-score -0.1; fewer than 50 cells in well enough cells in well; inactive.
For Cdh10, the entry reads Tnf reporter robust z-score 0.11; fewer than 50 cells in well enough cells in well; inactive.

A portion taken from the entries so far, as a working copy:
Xxylt1: Tnf reporter robust z-score = -0.1; fewer than 50 cells in well = enough cells in well; activity call = inactive
Cdh10: Tnf reporter robust z-score = 0.11; fewer than 50 cells in well = enough cells in well; activity call = inactive

The results go on:
Wnt10a gave Tnf reporter robust z-score -0.05; fewer than 50 cells in well enough cells in well; inactive.
Depletion of Evl gave: Tnf reporter robust z-score -1.49; fewer than 50 cells in well enough cells in well; active.
Or2b2b gave Tnf reporter robust z-score -0.6; fewer than 50 cells in well enough cells in well; inactive.
For Oxct2a the deposit lists fewer than 50 cells in well fewer than 50 cells per well; well left out of calls; inactive.
Sry showed Tnf reporter robust z-score 0.89; fewer than 50 cells in well enough cells in well; inactive.
Ablim3 scored Tnf reporter robust z-score 2.46; fewer than 50 cells in well enough cells in well; inactive.
Knock-down of Tlr6 gave: Tnf reporter robust z-score -0.67; fewer than 50 cells in well enough cells in well; inactive.
After knock-down of Ppp1r14b, the screen gave Tnf reporter robust z-score 1.05; fewer than 50 cells in well enough cells in well; inactive.
Silencing of Gdpgp1 resulted in: Tnf reporter robust z-score -0.36; fewer than 50 cells in well enough cells in well; inactive.
Zcchc12 scored Tnf reporter robust z-score 1.19; fewer than 50 cells in well enough cells in well; inactive.
